The full ranking holds about 33,000 sequences; the median of “E-score (-0.5 to 0.5)” is about -0.016, and the highest 2% start at about 0.3. The list shows a part of the results.
Molecular target: T1, Yer184c (UniProt P39961)
T1 sequence: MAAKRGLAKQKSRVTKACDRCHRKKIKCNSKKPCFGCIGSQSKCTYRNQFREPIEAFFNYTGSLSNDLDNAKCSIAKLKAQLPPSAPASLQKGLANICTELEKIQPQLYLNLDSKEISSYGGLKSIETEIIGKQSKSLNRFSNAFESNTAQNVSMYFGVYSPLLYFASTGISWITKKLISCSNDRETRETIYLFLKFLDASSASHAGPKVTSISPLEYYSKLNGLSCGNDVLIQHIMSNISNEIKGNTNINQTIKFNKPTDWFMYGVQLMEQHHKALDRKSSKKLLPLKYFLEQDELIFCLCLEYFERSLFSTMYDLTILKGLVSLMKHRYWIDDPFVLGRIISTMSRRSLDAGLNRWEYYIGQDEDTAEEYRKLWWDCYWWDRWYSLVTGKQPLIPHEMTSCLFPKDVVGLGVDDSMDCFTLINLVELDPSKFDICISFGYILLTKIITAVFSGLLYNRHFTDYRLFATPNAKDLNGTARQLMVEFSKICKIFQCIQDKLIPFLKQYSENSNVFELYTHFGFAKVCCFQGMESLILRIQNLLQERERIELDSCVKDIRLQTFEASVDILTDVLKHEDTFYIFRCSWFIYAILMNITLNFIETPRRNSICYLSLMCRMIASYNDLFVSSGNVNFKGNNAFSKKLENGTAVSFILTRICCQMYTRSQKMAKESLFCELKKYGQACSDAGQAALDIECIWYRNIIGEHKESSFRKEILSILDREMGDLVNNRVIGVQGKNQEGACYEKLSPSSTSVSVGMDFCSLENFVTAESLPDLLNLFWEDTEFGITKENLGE
Assay: PBM E-score (8-mer binding enrichment) (E-score (-0.5 to 0.5)); higher = stronger / more preferred TF binding
Conditions: protein concentration: 100 nM; construct: GST-full length
Summary of the method: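 Universal all-10-mer Agilent arrays, double-stranded by primer extension on fresh or once-stripped slides, were probed with about 100-200 nM GST-tagged yeast transcription factors made by PURExpress. Fluorescent anti-GST detected bound protein, and masliner normalised the scans. E-scores from the Universal PBM Analysis Suite were given to each ungapped eight-base word pooled with its reverse complement.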

Sequence	PBM E-score
CCACGGCG	0.0177
TGGCCCAA	-0.17
AGTGATTG	-0.003
ACGAGTGG	-0.16
CCGGTGGA	0.107
ATTCTAGA	0.057
ACGTCGTA	-0.273
AGCCCATC	-0.215
ACGACACT	-0.148
ACAGTCGC	-0.155
CCACTCTC	-0.131
GGGCAGCA	-0.211
CCGACCAA	0.167
AGGCTCGA	-0.162
TAAAACCA	-0.0862
ACGCGCTA	0.0714
ATCTGCGC	-0.0258
GCATGCAA	0.0435
CAGGCAAG	-0.223
CTGCAGCA	-0.139
CGCCGCCC	-0.0549
CTTCAGTA	0.0326
AAGGTAGG	-0.0438
CGATCATA	0.086
GAGGAAAA	0.148

Sequence	PBM E-score
AACGGTCT	-0.0342
AAACACTG	0.0473
TGGTGAAA	-0.0226
CAGGTCAA	-0.127
GGACGCCC	-0.106
CCAGGTCG	-0.276
ACGGTTTC	0.0227
GCACATAC	-0.192
ACGTCTCA	-0.138
CACGTGAG	-0.00124
GCCCGATA	-0.00011
CCGCAAAG	0.136
CTAGCTCA	-0.178
CATGGATC	-0.19
AGTATGCC	-0.0488
AGGAGCAA	-0.191
CTGGTCGA	-0.155
GATAGTTA	0.0291
AATTCGAA	0.024
ACGTCAGC	-0.113
GCTATGAC	-0.0297
AGCCAATC	-0.0865
CCGTCACG	0.00271
GAGTGGAA	-0.0522
AGGGCCAA	-0.306

Sequence	PBM E-score
CGTAGTAA	0.0272
AATCCAGG	-0.0734
ACAGACGA	0.0404
AATGCGAT	-0.14
TCCGAGCA	0.329
ACCTAGCA	-0.108
CCAAAGGC	-0.141
GAAGGCAA	-0.0516
AAGATATG	0.196
CCCGCCTA	-0.029
GGATTAAC	-0.0895
CGTCTAGC	-0.0336
AATAAGAC	-0.11
AAGCCCGA	0.0527
CGAGAATC	0.156
ATCGACCA	-0.178
ACACAATC	0.07
CAGGGATC	-0.129
AGGACTCG	-0.182
GACAAATA	0.0779
TGATTGCA	-0.101
ACCCGCAC	-0.146
CAGACGGG	-0.207
AAATCCCG	0.153
AGGATTGC	-0.076

Sequence	PBM E-score
CGCCGCTC	0.144
ATGATATC	-0.0352
ATGAGCCA	-0.114
CCCCACGC	-0.299
ACACTTGG	-0.094
GGTGCCAA	-0.106
ACTTCGAG	0.0369
ATCGGCTC	0.165
AGACGTTA	-0.146
GACCTTGA	-0.136
AAACATCA	-0.0701
AGGTAGGG	-0.236
AGAATTCC	0.0683
TGTCAGAA	0.0255
GCTACAAA	0.197
ACGTTGAA	0.0599
ATGCAACC	-0.0353
CACTATTC	0.141
AAGGATGA	-0.214
CATGCACG	-0.177
AAGTTCGG	0.278
AAGAGATG	-0.0581
CTGGACCA	-0.121
CGAGATAG	-0.151
TAATCCGA	0.172

Copied from the results shown (93 entries):
Sequence	PBM E-score
AGCCCATC	-0.215
ACGACACT	-0.148
ACAGTCGC	-0.155
CCACTCTC	-0.131
GGGCAGCA	-0.211
CCGACCAA	0.167
AGGCTCGA	-0.162
TAAAACCA	-0.0862
ACGCGCTA	0.0714
ATCTGCGC	-0.0258
GCATGCAA	0.0435
CAGGCAAG	-0.223
CTGCAGCA	-0.139
CGCCGCCC	-0.0549
CTTCAGTA	0.0326
AAGGTAGG	-0.0438
CGATCATA	0.086
GAGGAAAA	0.148
AACGGTCT	-0.0342
AAACACTG	0.0473
TGGTGAAA	-0.0226
CAGGTCAA	-0.127
GGACGCCC	-0.106
CCAGGTCG	-0.276
ACGGTTTC	0.0227
GCACATAC	-0.192
ACGTCTCA	-0.138
CACGTGAG	-0.00124
GCCCGATA	-0.00011
CCGCAAAG	0.136
CTAGCTCA	-0.178
CATGGATC	-0.19
AGTATGCC	-0.0488
AGGAGCAA	-0.191
CTGGTCGA	-0.155
GATAGTTA	0.0291
AATTCGAA	0.024
ACGTCAGC	-0.113
GCTATGAC	-0.0297
AGCCAATC	-0.0865
CCGTCACG	0.00271
GAGTGGAA	-0.0522
AGGGCCAA	-0.306
CGTAGTAA	0.0272
AATCCAGG	-0.0734
ACAGACGA	0.0404
AATGCGAT	-0.14
TCCGAGCA	0.329
ACCTAGCA	-0.108
CCAAAGGC	-0.141
GAAGGCAA	-0.0516
AAGATATG	0.196
CCCGCCTA	-0.029
GGATTAAC	-0.0895
CGTCTAGC	-0.0336
AATAAGAC	-0.11
AAGCCCGA	0.0527
CGAGAATC	0.156
ATCGACCA	-0.178
ACACAATC	0.07
CAGGGATC	-0.129
AGGACTCG	-0.182
GACAAATA	0.0779
TGATTGCA	-0.101
ACCCGCAC	-0.146
CAGACGGG	-0.207
AAATCCCG	0.153
AGGATTGC	-0.076
CGCCGCTC	0.144
ATGATATC	-0.0352
ATGAGCCA	-0.114
CCCCACGC	-0.299
ACACTTGG	-0.094
GGTGCCAA	-0.106
ACTTCGAG	0.0369
ATCGGCTC	0.165
AGACGTTA	-0.146
GACCTTGA	-0.136
AAACATCA	-0.0701
AGGTAGGG	-0.236
AGAATTCC	0.0683
TGTCAGAA	0.0255
GCTACAAA	0.197
ACGTTGAA	0.0599
ATGCAACC	-0.0353
CACTATTC	0.141
AAGGATGA	-0.214
CATGCACG	-0.177
AAGTTCGG	0.278
AAGAGATG	-0.0581
CTGGACCA	-0.121
CGAGATAG	-0.151
TAATCCGA	0.172

(cont.)

Sequence	PBM E-score
CTTAAAAG	-0.0115
ACAAGGAG	0.0222
ATTCGCAG	0.048
AAGTTAGA	0.0688
ACAAGATG	-0.168
AAATTGGC	-0.144
AACGGCTG	0.0658
CCATACAC	0.0635
AGCGCGAG	-0.0145
AAGCCACG	-0.0993
TCGAAGAA	-0.0488
ACAGAAAT	0.21
ACCTGTAA	-0.103
CCCAGTAA	-0.0821
GCGTTAAC	0.041
CTTTATGC	0.183
TTGTAAAA	0.0967
ACATCGAG	-0.14
CCCTCCAA	-0.193
ACTATCTG	-0.0595
AAGTGCAT	-0.021
AGGCTCAT	-0.102
ACCAGAAA	0.121
AAGCGCCT	-0.14
GAGGGCCC	-0.241

Sequence	PBM E-score
CACTTTGA	-0.151
GCAATGTA	-0.042
ACCCCTGC	-0.322
CGAATTTA	0.223
TAGGCATA	-0.193
GCATTGGC	-0.269
CGGGAGGC	-0.193
ATTGGATC	0.0272
TGGTACAA	-0.134
ACTAATCC	0.0469
TATTATGA	0.0656
GCCTGCCC	-0.2
AACCGCGG	0.372
CTGAGTTA	-0.00443
GCACGTCA	-0.275
CCTACAAC	0.0109
ATCACGTA	-0.172
GCCACACC	-0.131
ATTTGTAG	0.0971
ATCTCAGG	-0.154
AGAGCGAT	-0.245
AGCCAACA	-0.127
ACCAAAGC	0.0124
ACGCGTGC	-0.111
AGGGTGGG	-0.0967

Sequence	PBM E-score
CATGTTAG	-0.0773
ATGATTTG	-0.00599
AGCCGGCA	0.404
CTGAATAC	-0.0281
TCATGCAA	-0.0327
AAATCTCC	-0.0843
CAGAAAAG	0.12
AAGTCGAT	-0.104
CAGATAGG	-0.118
AGCGATAC	-0.0215
ACGCGCAG	-0.232
GAAATCGC	0.0587
AACTGTTC	0.063
CCCCCTAG	-0.409
AATCCAGC	0.012
ACTCATCT	-0.0347
GATACCCC	-0.123
CTGGAGAA	-0.0469
CAATTCGG	0.12
AGCCCCAA	-0.404
CCACACTA	0.139
CCTATGTC	-0.152
CACATCGA	-0.127
CAAAGTTG	-0.0329
AAGAACAT	0.138

Sequence	PBM E-score
ATATTCGC	0.111
AAGGGGAT	-0.137
GTCCGAGA	0.333
AACTCACT	-0.228
CGGCTAGC	0.24
TCCCCGCA	-0.0944
GGCCAAAC	-0.0526
CATTGGCA	-0.132
AGTCTTGG	-0.0577
CTGTAGGA	-0.0223
AAGAGGCG	-0.0476
AAGCACTT	-0.0603
AGAGCCAC	-0.12
GCCTAGCC	-0.172
CGTGACCA	-0.205
AGCTCATA	0.0989
ACACAACT	-0.074
AGGGAGCA	-0.334
TTCGTAAA	0.0501
AGCATTGA	-0.082
GCGAGCCC	-0.182
AATAGTCG	0.0462
CCTAGATA	-0.25
CGGTAACA	0.241
GCCCGTGA	-0.132

Sequence	PBM E-score
CCCATGAC	-0.117
AAGGTATT	0.0587
ACCGGATA	0.187
AAAACGTT	0.142
CAATAGTC	-0.125
GTGGACTA	0.0273
GGCAGGCA	-0.0182
CCTCAAGC	-0.209
AAGCGGTG	-0.211
CAAATAAA	0.21
GTGCGGGA	0.0332
ACGCGCCT	-0.134
AGTGCGCG	-0.151
GTGATCAA	0.153
CTAATGAG	-0.162
ATGTTACC	0.0827
CCGCACGA	0.15
ATAGCACG	-0.0903
GTTCGAAC	0.228
CTTAAGGA	-0.0893
ACGTGGCG	-0.213
ATGCTCTC	-0.0198
TATATAGA	0.198
AGGTGCGG	-0.0959
GGTGCACA	-0.134

Sequence	PBM E-score
ATCGAAAG	0.125
AAGACAGA	0.212
AAACATTT	0.123
ACCGCACT	-0.0213
CCTATTTA	0.0643
AGGAACCC	-0.173
AATAACAG	0.232
CAACAGGA	-0.139
ATACCCGC	0.0816
CTACGGGA	0.0775
AGTCGAAG	-0.108
ACCTCGCT	0.0583
GCCACCCC	-0.32
ACAGACGT	-0.0477
CACATATA	0.102
TGAAGTCA	-0.0926
CATTGATA	0.0947
CCCTGGAC	-0.204
CACGACAG	-0.129
GCCTATTA	-0.00127
AATTCTCC	0.239
CATGAACA	0.15
CAAACTCG	0.00018
AGGCCGCG	0.0685
AGTATGAG	0.0651

Sequence	PBM E-score
CGTTAGAC	-0.0103
ATTCGCAC	0.041
GATAGAGA	0.00952
CAAATGAG	-0.104
GAACGGAA	0.267
ACCGGAAT	0.233
AGCCCGTC	-0.213
AAAACGAA	0.203
AATATTGG	-0.13
CGGATGCC	0.219
AATGGTTG	0.0597
AGTGTGTC	-0.0553
GTCCGAAA	0.316
ACACCCGT	-0.0572
CGCAAGGA	-0.0965
GGGCTATA	-0.287
ACCACTAA	0.124
ACGACAAT	0.0693
AAGGTGGT	-0.181
CGAACAAG	0.167
ATTAGAGA	0.037
GCATGATA	0.0968
CCAGTCAG	-0.225
TGTGCACA	-0.205
CAACGTAG	-0.099

Sequence	PBM E-score
ATACGACG	0.154
GCAGACGA	-0.0385
CCGTTAGA	0.19
GCGGCACC	0.23
CGCTCTTA	0.154
CTGACCCA	-0.289
CCCGTTGC	-0.0512
GCAAGTTA	0.079
GCTGCGAC	-0.182
CGCGGAGC	0.171
CATAGTGC	0.0533
GGTTTGAA	0.202
AAGTTAGC	0.175
ATATTCCG	0.38
CTATTCTC	0.0168
CTGGGCAC	-0.0897
CATACTAA	0.142
ACTGATAA	0.147
ACTCCTCT	-0.148
TAGAGATA	0.145
CCGACGTC	0.0909
CAAAGAAG	0.0602
CCATGGAG	-0.162
GACAGAAA	0.252
AGCGGGTC	-0.202

Sequence	PBM E-score
GACAGCAC	0.108
AAATTGAA	0.0316
AGGAGGGG	-0.215
AACTCGCA	0.0241
GCACATTA	-0.0503
CTCACGAA	0.0594
CCTAGCCA	-0.128
ATATGGGA	-0.205
AAGAGAAC	0.0994
CGGCTTAC	0.151
AAGGAAAT	0.107
ATCTGTCC	-0.121
CGCAGCAG	-0.00318
AGGCAGGA	-0.14
GTGCCGAA	0.387
AAGAACAG	0.0738
AGTTGTAC	0.0615
CGAGAGTC	-0.0879
GATACCAA	0.0987
CTTGACGA	-0.0655
GCCTACGC	-0.208
CTCGCAAC	0.03
AATAATAG	0.00819
CATCGCGC	-0.0366
AAAGTATG	-0.012

Sequence	PBM E-score
CAAAAAAG	0.177
ACGTGGTA	-0.0833
AGCGAATC	0.0598
GATACTCC	-0.0289
GCCTAGAC	-0.138
AAACAGTC	-0.192
CAGTATAA	0.145
TCGTTTCA	0.124
CGAGTCGA	0.0363
CGGGAGAG	-0.0509
ACATTGCC	-0.0517
ACTGGATA	0.0928
CTTGCTAC	-0.00558
ACACTTAA	0.0551
AACCCCGT	-0.101
ATGTAGGG	-0.219
ATTAATCC	0.212
CCCACGCA	-0.0326
TCTGCTAA	0.0656

Reference: the supplement of paper PMC3334620
